PubChem BioAssay AID485298 (National Center for Advancing Translational Sciences (NCATS), 2010)
In all, about 320,000 compounds went through this assay and about 740 (0.23%) were called active. Inconclusive results, whose numbers are uncertain, are shown with a selection of clear calls. Calls follow the shape of the dose curve; as a rule, active = well fitted activation curve with a large enough effect; inconclusive = small, poorly fitted or top-dose-only effect; inactive = no such curve, though single readings can be large or run the other way. Potencies of inconclusive entries are doubtful fits and often do not repeat.

experiment: qHTS Assay for Small Molecule Inhibitors of Mitochondrial Division or Activators of Mitochondrial Fusion; also: nearly all actives have a fitted effect of over 45% in size;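 as to growth rescue (activation): temperature-sensitive fusion mutants such as fzo1-1 at 37 °C on non-fermentable ethanol glycerol medium; % of control where 0% means no effect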; settings: S. cerevisiae fusion-defective mutant growth rescue, CellTiterGlo 48 h; growth rescue (activation): at 46.1 µM (top of the series) unless noted
Summary of the method: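 Compounds are tested for their ability to restore growth of mitochondrial fusion-defective yeast strains at non-permissive 37C in YPEG medium over 48 hours. Viability is quantified by luciferase luminescence.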
Potency is read from the fitted curve at half-maximal effect.

Question: With `N#CC12CCCCC1CC1CCCCC1(C#N)N2Cc1cccnc1` (stereo not given) as the compound, how does the “growth rescue (activation)” value read?
Answer: inactive: 2.54%

Question: Which “growth rescue (activation)” value does the source give for `CCOC(=O)c1ccc(N2C(=O)CC(SCC(N)C(=O)OCC)C2=O)cc1` (stereo not given) here?
Answer: inactive: -3.74%

Question: With `O=C1OCc2cccc([N+](=O)[O-])c21` as the compound, how does the Potency read?
Answer: inconclusive: 3.98 µM [activator, single point]

Question: Which “growth rescue (activation)” value does the source give for `COCCCn1[nH]c2c3c(ccc2c1=O)C(=O)c1ccccc1C3=O` here?
Answer: inactive: -0.805%

Question: With `O=C(CCCN1C(=O)/C(=C/c2ccccc2)SC1=S)Nc1ccccc1O` as the compound, how does the Potency read?
Answer: inconclusive: 7.94 µM [activator, partial curve]

Question: Which Potency does the source give for `CC1CCCCN1c1nnc(NC(=O)c2cc(-c3ccc(Br)cc3)on2)s1` (stereo not given) here?
Answer: inconclusive: 20 µM [activator, single point]

Question: With `C/C(=N\Nc1nc(N2CCOCC2)nc(N2CCOCC2)n1)c1ccc([N+](=O)[O-])cc1` as the compound, how does the Potency read?
Answer: inconclusive: 35.5 µM [activator, single point]

Question: For `Clc1ccc2c(c1)-c1nnc(Br)n1-c1ccccc1S2`, which Potency is on record?
Answer: inconclusive: 25.1 µM [activator, single point]

Question: Which Potency does the source give for `CCNC(=O)[C@H]1O[C@@H](n2cnc3c(N)nc(NCCc4ccc(CCC(=O)O)cc4)nc32)[C@H](O)[C@@H]1O` here?
Answer: inconclusive: 0.0326 µM [activator, full curve, poor fit]

Question: With `CCC(C(=O)N1CCN(c2ncccn2)CC1)c1ccccc1` (stereo not given) as the compound, how does the “growth rescue (activation)” value read?
Answer: inactive: -18%

Question: With `Nc1nc(Nc2ccccc2)nc(NCc2ccco2)c1[N+](=O)[O-]` as the compound, how does the Potency read?
Answer: inconclusive: 11.2 µM [activator, partial curve]

Question: With `COc1cccc(C(=O)Nc2nnc(S(=O)(=O)N(C)Cc3ccccc3)s2)c1` as the compound, how does the Potency read?
Answer: inconclusive: 2.24 µM [activator, full curve]

Question: With `O=S(=O)(c1ccccc1)c1nc(NCc2ccccc2)sc1Cl` as the compound, how does the Potency read?
Answer: inconclusive: 14.1 µM [activator, partial curve]

Question: Which Potency does the source give for `COc1cc(-c2ccc3sc(-c4ccsc4)c(C#CCO)c3c2)cc(OC)c1OC` here?
Answer: inconclusive: 10 µM [activator, single point]

Question: Which Potency does the source give for `Cc1ccc(S(=O)(=O)Nc2nnc(C3CCCCC3)s2)cc1` here?
Answer: inconclusive: 35.5 µM [activator, partial curve]

Question: With `COc1ccc(OC)c(NC(=O)c2csc(Cl)c2OC)c1` as the compound, how does the Potency read?
Answer: active: 10 µM

Question: For `O=C(NC1CCN(Cc2ccccc2)CC1)c1ccccc1`, which “growth rescue (activation)” value is on record?
Answer: inactive: 14.9%

Question: With `O=C(NCc1ccco1)c1ccc(Cl)c(S(=O)(=O)N2CCc3ccccc32)c1` as the compound, how does the Potency read?
Answer: inconclusive: 17.8 µM [activator, single point]

Question: Which Potency does the source give for `Cc1nn(-c2nc3ccccc3[nH]2)c(N)c1-c1ccccc1` here?
Answer: inconclusive: 11.2 µM [activator, partial curve]

Question: Which Potency does the source give for `CCc1cc(-c2nc(N)ncc2-c2ccc(Br)cc2)c(O)cc1OC` here?
Answer: inconclusive: 3.55 µM [activator, full curve]

Question: Which Potency does the source give for `CC(=O)Nc1ccc(S(=O)(=O)N2CCN(c3cc(C)ccc3C)CC2)cc1` here?
Answer: inconclusive: 35.5 µM [activator, single point]

Question: For `O=C(Nc1ccccc1N1CCCCC1)c1cc(S(=O)(=O)N2CCOCC2)ccc1F`, which Potency is on record?
Answer: inconclusive: 11.2 µM [activator, single point]

Question: Which “growth rescue (activation)” value does the source give for `O=C(N/N=C/c1ccccn1)c1cc(C2CC2)nc2ccccc12` here?
Answer: inactive: -1.78%

Question: With `COc1ccccc1CNC(=O)c1ccc(-c2ccccc2C(F)(F)F)o1` as the compound, how does the Potency read?
Answer: inconclusive: 15.8 µM [activator, single point]

Question: Which Potency does the source give for `CCCCNC(=O)N1CCN(C(c2ccccc2)c2ccccc2)CC1` here?
Answer: active: 17.8 µM

Question: With `Cc1cccc(/C=N/NC(=O)c2cc3c(s2)-c2ccccc2CC3)c1` as the compound, how does the Potency read?
Answer: active: 11.2 µM

Question: For `COc1ccc(-c2[nH]c(-c3ccccc3)nc2SCC(=O)NC2CCCC2)cc1`, which Potency is on record?
Answer: inconclusive: 31.6 µM [activator, single point]

Question: With `CC1CCN(S(=O)(=O)c2cn(CC(=O)Nc3cccc(C#N)c3)cn2)CC1` as the compound, how does the Potency read?
Answer: inconclusive: 2.51 µM [activator, partial curve]

Question: For `Oc1ccc(C2CNCCc3c2cc(O)c(O)c3Cl)cc1` (stereo not given), which Potency is on record?
Answer: inconclusive: 16.4 µM [activator, partial curve]

Question: For `CCOc1ccc(C(=O)Nc2c(C(N)=O)oc3ccccc23)cc1`, which Potency is on record?
Answer: inconclusive: 17.8 µM [activator, partial curve]

Question: For `O=C(NNC(=S)NC(=O)c1ccccc1)c1cccnc1`, which “growth rescue (activation)” value is on record?
Answer: inactive: -0.0935%

Question: With `Cc1ccc(C(=O)O/N=C2\CC3CCC2(C)C3(C)C)cc1` (stereo not given) as the compound, how does the Potency read?
Answer: inconclusive: 12.6 µM [activator, partial curve]

Question: For `COc1cc(OC)cc(C(=O)N[C@H](C(=O)Nc2nc3ccccc3[nH]2)C(C)C)c1`, which “growth rescue (activation)” value is on record?
Answer: inactive: -2.45%

Question: Which Potency does the source give for `c1ccc(-c2nnc3sc(-c4csc5c4CCCC5)nn23)cc1` here?
Answer: inconclusive: 25.1 µM [activator, single point]

Question: With `O=C(c1ccc(-n2cccn2)cc1)N1CCc2c([nH]c3ccccc23)C1c1ccccn1` (stereo not given) as the compound, how does the Potency read?
Answer: inconclusive: 17.8 µM [activator, partial curve]

Question: Which Potency does the source give for `O=C(/C=C/c1ccccc1)Nn1c(-c2cccs2)nc2ccccc2c1=O` here?
Answer: inconclusive: 28.2 µM [activator, single point]

Question: For `Cc1ccc2nnn(Cc3cccc(C(C)(C)C)c3O)c2c1`, which Potency is on record?
Answer: active: 12.6 µM

Question: For `COc1cc(C(=O)Sc2ccc(C)cc2)cc(OC)c1OC`, which “growth rescue (activation)” value is on record?
Answer: inactive: -8.86%

Question: Which “growth rescue (activation)” value does the source give for `Cc1ccc(-n2ncc3c(=O)[nH]c(SCC(=O)N4CCCc5ccccc54)nc32)cc1` here?
Answer: inactive: -1.52%

Question: For `O=C(Nc1cccc(Cl)c1)C1CCCN(c2cnccn2)C1` (stereo not given), which Potency is on record?
Answer: inconclusive: 8.91 µM [activator, partial curve]

Question: For `C/C(=N\NC(=S)NC(C)C)c1ccc(C(C)(C)C)cc1`, which Potency is on record?
Answer: inconclusive: 35.5 µM [activator, single point]

Question: For `Cc1ccc(C)c(CSc2nnc(-c3cccnc3)o2)c1`, which Potency is on record?
Answer: inconclusive: 14.1 µM [activator, partial curve]

Question: With `COC(=O)N/N=C/c1cccc(OCCSc2ccc(Cl)cc2)c1` as the compound, how does the Potency read?
Answer: inconclusive: 22.4 µM [activator, single point]

Question: Which Potency does the source give for `COC(=O)COc1ccc(S(=O)(=O)N2CCN(c3ccc(OC)cc3)CC2)cc1` here?
Answer: inconclusive: 35.5 µM [activator, partial curve]

Question: Which Potency does the source give for `O=C(c1ccc(COc2ccccc2Br)o1)N1CCCCCC1` here?
Answer: inconclusive: 15.8 µM [activator, partial curve]

Question: Which Potency does the source give for `COc1ccc(-c2csc3ncn(-c4cccc(C)c4)c(=O)c23)cc1OC` here?
Answer: inconclusive: 25.1 µM [activator, single point]

Question: Which Potency does the source give for `COc1cccc(-c2ncc3ccccc3c2COC(=O)c2cccs2)c1` here?
Answer: inconclusive: 22.4 µM [activator, single point]

Question: For `O=C(c1cccc(Br)c1)c1conc1C(=O)c1ccco1`, which Potency is on record?
Answer: inconclusive: 35.5 µM [activator, single point]

Question: For `CC(C)OCCCN1C=C2C(=O)C(C)(OC(=O)CCc3ccccc3)C(=O)C=C2C=C1c1ccc(C#N)cc1` (stereo not given), which “growth rescue (activation)” value is on record?
Answer: inactive: -0.53%

Question: With `Cc1onc(C(=O)Nc2ccccc2C(F)(F)F)c1[N+](=O)[O-]` as the compound, how does the Potency read?
Answer: inconclusive: 3.16 µM [activator, partial curve]

Question: With `Cc1cccn2c(=O)c(/C=C(\C#N)C(=O)NCc3ccco3)c(N3CCCC(C)C3)nc12` (stereo not given) as the compound, how does the Potency read?
Answer: inconclusive: 35.5 µM [activator, single point]

Question: Which Potency does the source give for `Clc1ccc(CCNc2ncnc3nc[nH]c23)cc1` here?
Answer: inconclusive: 35.5 µM [activator, single point]

Question: With `COc1ccc(C(CC(=O)Nc2cc(OC)cc(OC)c2)n2cccc2)cc1` (stereo not given) as the compound, how does the Potency read?
Answer: inconclusive: 20 µM [activator, single point]

Question: For `O=[N+]([O-])c1cc(S(=O)(=O)Nc2cccc(C(F)(F)F)c2)ccc1-n1nnc2ccccc21`, which “growth rescue (activation)” value is on record?
Answer: inactive: 4.92%

Question: With `CCOc1ccc2c(c1)-c1c(ssc1=S)C(C)(C)N2C(=O)CSC1=NCCS1` as the compound, how does the Potency read?
Answer: inconclusive: 12.6 µM [activator, partial curve]

Question: With `COCCn1c(-c2ccccc2F)n[nH]c1=S` as the compound, how does the “growth rescue (activation)” value read?
Answer: inactive: 11.2%

Question: Which “growth rescue (activation)” value does the source give for `CCCCn1c(N)c(N(CCC(C)C)C(=O)CCCc2nc3ccccc3s2)c(=O)[nH]c1=O` here?
Answer: inactive: -1.34%

Question: Which “growth rescue (activation)” value does the source give for `O=C(COC(=O)Cc1ccccc1F)Nc1ccc(Cl)cn1` here?
Answer: inactive: 0.493%

Question: For `CCc1cc2cc3c(cc2nc1SCC(=O)Nc1nccs1)OCO3`, which “growth rescue (activation)” value is on record?
Answer: inactive: -5.5%

Question: With `S=C(NCCc1cccc(Cl)c1)NCc1ccccc1` as the compound, how does the “growth rescue (activation)” value read?
Answer: inactive: -2.97%

Question: For `CCCCCOc1ccc(CN2CCOCC2)cc1Cl`, which Potency is on record?
Answer: inconclusive: 7.08 µM [activator, full curve, poor fit]

Question: With `COC(=O)c1cccc(NC(=O)/C=C/c2ccc3c(c2)OCO3)c1` as the compound, how does the Potency read?
Answer: inconclusive: 35.5 µM [activator, single point]

Question: With `Cc1ccc(S(=O)(=O)N(C)/N=C2/C(=O)N(CC(=O)O)c3ccccc32)cc1` as the compound, how does the Potency read?
Answer: inconclusive: 25.1 µM [activator, single point]

Question: With `COc1cc(/C=C/c2ccc3cccc(OC)c3n2)c(O)c([N+](=O)[O-])c1` as the compound, how does the Potency read?
Answer: inconclusive: 35.5 µM [activator, single point]

Question: Which Potency does the source give for `CCc1ccc(OCC(=O)N2c3ccccc3CCc3ccccc32)cc1` here?
Answer: inconclusive: 17.8 µM [activator, single point]

Question: Which Potency does the source give for `CCN(c1ccccc1)S(=O)(=O)c1ccc(C(=O)Nc2nnc(-c3ccco3)o2)cc1` here?
Answer: inconclusive: 31.6 µM [activator, single point]

Question: For `O=C(N/N=C/c1c(Cl)nc2ccccn2c1=O)c1cccnc1`, which “growth rescue (activation)” value is on record?
Answer: inactive: 1.31%

Question: Which “growth rescue (activation)” value does the source give for `CC(=O)Nc1ccc2nc(C3CC3)n(Cc3ccc(Cl)cc3)c(=O)c2c1` here?
Answer: inactive: 23.2%

Question: With `COc1ccc(OC2CCN(S(=O)(=O)c3ccc(OC)cc3)CC2)cc1` as the compound, how does the Potency read?
Answer: inconclusive: 8.91 µM [activator, partial curve]

Question: For `Oc1ccc2ccccc2c1N=Nc1nccs1`, which Potency is on record?
Answer: inconclusive: 8.91 µM [activator, partial curve, poor fit]
